Laboratory results: patent publication US20050042316A1, “Attractants for moths” (priority 2001, published 2005)
Entries after “also recorded” stand apart in the source; their conditions may differ. At least one structure is not confirmed: it was looked up by name or label, or the drawing left a doubt. Some results were stated once for a whole list of compounds, not compound by compound.

Tested on: H. armigera moths
Assay: two-choice olfactometer, moths entering the test chamber
Type: in vivo, Helicoverpa armigera
From the text: The design of our olfactometer (FIG. 1) has been described by Gregg et al. (1998) and is similar to that of Beerwinkle et al. (1996). The olfactometer is a two-choice system in which moths choose between two airstreams. One carries either a bouquet (about 200 g) of freshly cut plant stems with their bases in a flask of water, or plant volatiles formulated and presented as described below (the test chamber). The other carries clean air (the control chamber). Each run normally uses 50 moths, and runs are normally replicated three times for each sex and each attractant. Thus, olfactometer data points are usually each based on the responses of 150 moths. Moths are laboratory-reared, unmated and aged 1-4 (usually 2-3) days. We use two criteria for attractiveness, the test % (percentage of the total 150 moths which enter the test chamber), and success rate (number entering the test chamber relative to those entering the control chamber). The former is our primary criterion, and is the one presented here. Data are analysed using Zar's procedure for multiple comparison of proportions. With N=150, the minimum significant difference between two percentages using-this procedure is about 8%.
For testing single chemicals in the olfactometer early in the project, we dissolve the synthetic chemical in canola oil at a concentration of 10%. 200 μl of this is absorbed into a cotton dental wick which is placed in the test airstream of the olfactometer. These lures are changed every 2 h during olfactometer runs. Later tests of single chemicals to determine the effects of varying concentration are done using Sirene formulations, as discussed below.
For testing chemical blends in the olfactometer and in field trapping experiments, we are formulating in Sirene, a mixture of anti-oxidants and UV protectants which was developed by Novartis for attract-and-kill of several moth species using pheromones, and for which IPM Technologies Ltd have worldwide marketing and development rights. Chemicals are mixed into Sirene in the barrel of a syringe using a slow (4 rpm) broad-bladed propeller, which stirs the highly viscous material for 3 h. Formulations are then stored at 40 C in the sealed syringe for periods of up to 2 weeks. Sirene formulations are tested in the olfactometer by placing about 100 mg on a horizontal square (1×1 cm) of plastic (Corflute®), which is then placed on a pin in the test airstream of the olfactometer. For field testing, the plastic square carrying the formulation is held horizontally under the lid of the AgriSense trap, in the same position that a pheromone lure would be, using a screw.

OCCc1ccccc1 [2-phenylethanol]
attraction in the olfactometer (statistical significance) (single chemicals, 10% in canola oil, females, FIG. 5, listed as compound 3): statistically significant attractiveness

CC1=CCC2C(C1)C2(C)C (centres unmarked) [Blend 3-carene, 3-carene]
attraction in the olfactometer (statistical significance) (single chemicals, 10% in canola oil, females, FIG. 5, listed as compound 6): statistically significant attractiveness

CC/C=C\CCOC(C)=O [Z-3-hexenyl acetate]
attraction in the olfactometer (statistical significance) (single chemicals, 10% in canola oil, females, FIG. 5, listed as compound 5): statistically significant attractiveness

CC/C=C\CCOC(=O)c1ccccc1O [Z-3-hexenyl salicylate]
attraction in the olfactometer (statistical significance) (single chemicals, 10% in canola oil, females, FIG. 5, listed as compound 1): statistically significant attractiveness

OCc1ccccc1 [benzyl alcohol]
attraction in the olfactometer (statistical significance) (single chemicals, 10% in canola oil, females, FIG. 5, listed as compound 4): statistically significant attractiveness

CC(C)=CCC/C(C)=C/CO [geraniol]
attraction in the olfactometer (statistical significance) (single chemicals, 10% in canola oil, females, FIG. 5, listed as compound 7): statistically significant attractiveness

C=C(C)[C@H]1CC=C(C)CC1 [limonene]
attraction in the olfactometer (statistical significance) (single chemicals, 10% in canola oil, females, FIG. 5, listed as compound 8): statistically significant attractiveness

C=CCc1ccc(OC)c(OC)c1 [methyl eugenol]
attraction in the olfactometer (statistical significance) (single chemicals in Sirene formulations): attractive; also recorded: significant levels of attraction
attraction in the olfactometer (statistical significance) (single chemicals, 10% in canola oil, females, FIG. 5): not quite statistically significant
attraction in the olfactometer (statistical significance) (single chemicals, 10% in canola oil, females, FIG. 5, listed as compound 9): very close to being statistically significant

O=CCc1ccccc1 [phenylacetaldehyde]
attraction in the olfactometer (statistical significance) (single chemicals, 10% in canola oil, females, FIG. 5, listed as compound 2): statistically significant attractiveness
